Not every detail of the peptide structures is certain; ends, links or a residue may be inferred. No end group written: not given here.
Key:
[1] = system: pig aorta endothelial cells (PAECs), human serum; assay: Chromium release assay (PAEC assay); format: cell-based; conditions: highest concentration (1 mM) tested
Protocol: Culture plates (Falcon 24-well plates, Becton Dickinson, Lincoln Park, N.J.) were coated by addition of 0.5 ml/well of 2% gelatin (Type B, from bovine skin, Sigma Chemical Co.) diluted 1:10 in Hanks buffered salt solution (Gibco BRL, Grand Island, N.Y.), followed by incubation for 15 min at room temperature. […]
The various peptide inhibitors (diluted in SFM) were added (300 μl/well) and incubated with the PAECs at 37° C. for 30 min. […] Supernatant (200 μl) was removed from each well and added to 200 μl of scintillation cocktail (OptiPhase `Supermix`, Wallac Inc., Turku, Finland) previously added to each well of a 24-well polyethylene terephtalate reading plate (Wallac Inc.), and the plate was sealed with an acetate plate sealer (Dynatech Laboratories, Chantilly, Va.). The reading plate was placed on a shaker for 5 min to obtain a homogeneous mixture. Radioactivity (CPMs) of the wells was counted for 2 min using the 1450 MicroBeta PLUS plate reader (Wallac Inc.).
Total counts of ^51 Cr were determined from 200 μl aliquots taken from the wells to which 100 μl of 5% Triton X-100 (Sigma Chemical Co.) had been added. Total complement mediated lysis was determined from wells treated with HS alone, and background counts were determined from wells treated with HI-HS alone or with peptide alone (no HS). […]

[2] = system: sensitized sheep erythrocytes (SRBCs), human serum as complement; assay: Sheep red blood cell lysis assay (SRBC assay); format: cell-based; conditions: highest concentration (1 mM) tested

## KLKELHEFIKELLLC [CBP1, reference compound]
[1]
  inhibitory activity in the PAEC assay: no inhibitory activity
[2]
  inhibitory activity in the SRBC assay: no inhibitory activity

## SRFLTS [SEQ ID NO:6, Ser Arg Phe Leu Thr Ser, reference compound]
[1]
  inhibitory activity in the PAEC assay: no inhibitory activity
[2]
  inhibitory activity in the SRBC assay: no inhibitory activity

Source: patent US5932483A, “Synthetic peptide and its uses” (Northwestern University, priority 1996, dated 1999)
